Protein sequences, listed by entry. Tags and fused reporters are not part of them. Lines headed by an entry give the natural chain unless they say otherwise; changes in a name come on top.
UniProt P41159: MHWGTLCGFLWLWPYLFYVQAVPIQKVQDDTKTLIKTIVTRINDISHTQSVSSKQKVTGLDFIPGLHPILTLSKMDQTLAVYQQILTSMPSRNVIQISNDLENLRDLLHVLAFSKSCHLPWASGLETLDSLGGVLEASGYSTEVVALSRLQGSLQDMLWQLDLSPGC

In patent US20110288011A1 (priority 2008, published 2011):

Experiment: general procedure: Fmoc solid-phase peptide synthesis; Pre-loaded Fmoc-Leu-Wang resin (0.48 mmol/g); Rink amide MBHA resin with Nle (0.40 mmol/g) for ANG-Cys-NH2; HBTU/NMM (TBTU or HCTU for some peptides)
Conditions: for final HPLC purity / final purity (method not given): HPLC (Waters Acquity, BEH phenyl, 229 nm)
[1] = whole synthesis, scale of the general procedure 100 μmol

Substance | final HPLC purity [1] | final purity (method not given) [1] | isolated yield [1] [% yield] | conjugation yield (conjugation step) | further results
Ac-KRRPD-YIL-OH | purity HPLC≧95% | ≧95% | 82 |  | 
MHA-RRPYIL-OH | purity HPLC≧95% |  | 73 |  | 
NT-AN2Cys-NH2 |  |  |  | 65% yield | final HPLC purity (conjugation step): purity HPLC>95%; final purity (method not given) (conjugation step, run 1): purity>95%; final purity (method not given) (conjugation step, run 2): ≧95%; conjugation yield (conjugation step, over 2 steps, run 1): 9% over 2 steps; conjugation yield (conjugation step, over 2 steps, run 2): 54% over 2 steps
leptin(116-130) (SCHLPWASGLETLDS; C-terminal amide; UniProt P41159 116-130, looked up, fragment) |  |  |  | 79% | 
pGlu-LysNT (8-13) |  | ≧95% |  |  | 
